Test system: LNCaP cells
Assay: Immunofluorescent cytochemistry of cellular localization of FOXO1-IQBP peptides
Assay type: cell-based, human
Conditions: LNCaP cells transfected with HA-tagged peptide plasmids

## NDDFDNWSTFRPRTSSNASTISGRLSPIMT (HA-tagged FOXO1-derived IQGAP1-binding peptide) [S319]
  cellular localization of the peptide: ubiquitously expressed in both cytoplasm and nucleus

Reference: patent US10954277B2, “Materials and methods for treating cancer” (Mayo Foundation for Medical Education and Research, priority 2016, dated 2021)
